Assay results as given in paper doi:10.1101/325563.
No constants are given. Whether binding was seen depends on the method and setting. In cells and extracts the contact can be indirect. Some results given as binding are weak or reduced against the parent protein; the word gives no strength.

Sequences of proteins named here, by UniProt entry; tags and fusion partners are left off.
UniProt P33993: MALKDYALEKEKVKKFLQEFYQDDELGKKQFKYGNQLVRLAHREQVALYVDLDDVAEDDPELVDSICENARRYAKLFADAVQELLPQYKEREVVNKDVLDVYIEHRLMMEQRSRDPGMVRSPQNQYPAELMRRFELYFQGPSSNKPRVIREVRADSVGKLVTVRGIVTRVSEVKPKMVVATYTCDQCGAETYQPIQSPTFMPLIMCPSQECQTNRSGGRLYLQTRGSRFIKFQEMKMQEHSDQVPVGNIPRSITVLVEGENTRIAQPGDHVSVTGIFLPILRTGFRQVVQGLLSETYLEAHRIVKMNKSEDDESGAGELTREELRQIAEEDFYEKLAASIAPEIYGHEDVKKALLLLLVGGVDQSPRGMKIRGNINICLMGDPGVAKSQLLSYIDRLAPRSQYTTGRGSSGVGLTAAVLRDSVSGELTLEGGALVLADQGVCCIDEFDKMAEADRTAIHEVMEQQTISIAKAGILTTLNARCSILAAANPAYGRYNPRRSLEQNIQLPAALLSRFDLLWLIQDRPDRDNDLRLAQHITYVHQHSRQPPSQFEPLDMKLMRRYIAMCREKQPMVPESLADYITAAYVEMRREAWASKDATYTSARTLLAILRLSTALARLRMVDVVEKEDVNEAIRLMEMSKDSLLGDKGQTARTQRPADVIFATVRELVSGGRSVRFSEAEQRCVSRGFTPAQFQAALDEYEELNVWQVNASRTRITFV

What was measured:
[1] = molecular target: Minichromosome Maintenance Complex Component 7 (MCM7) (human (endogenous in FT282, OVCAR3 and FUOV1)) (UniProt P33993); test: proximity ligation
[2] = molecular target: Minichromosome Maintenance Complex Component 7 (MCM7) (human (endogenous in FT282, OVCAR3 and FUOV1)) (UniProt P33993); test: co-IP

B1: XRCC2 (protein, UniProt O43543 1-280)
chain: MCSAFHRAESGTELLARLEGRSSLKEIEPNLFADEDSPVHGDILEFHGPEGTGKTEMLYHLTARCILPKSEGGLEVEVLFIDTDYHFDMLRLVTILEHRLSQSSEEIIKYCLGRFFLVYCSSSTHLLLTLYSLESMFCSHPSLCLLILDSLSAFYWIDRVNGGESVNLQESTLRKCSQCLEKLVNDYRLVLFATTQTIMQKASSSSEEPSHASRRLCDVDIDYRPYLCKAWQQLVKHRMFFSKQDDSQSSNQFSLVSRCLKSNSLKKHFFIIGESGVEFC
- binding [1]: binds
- binding [2]: binds
